This series concerns the target T1, Carcinoembryonic antigen (CEA) (UniProt P06731).
T1 sequence (looked up, limits assumed): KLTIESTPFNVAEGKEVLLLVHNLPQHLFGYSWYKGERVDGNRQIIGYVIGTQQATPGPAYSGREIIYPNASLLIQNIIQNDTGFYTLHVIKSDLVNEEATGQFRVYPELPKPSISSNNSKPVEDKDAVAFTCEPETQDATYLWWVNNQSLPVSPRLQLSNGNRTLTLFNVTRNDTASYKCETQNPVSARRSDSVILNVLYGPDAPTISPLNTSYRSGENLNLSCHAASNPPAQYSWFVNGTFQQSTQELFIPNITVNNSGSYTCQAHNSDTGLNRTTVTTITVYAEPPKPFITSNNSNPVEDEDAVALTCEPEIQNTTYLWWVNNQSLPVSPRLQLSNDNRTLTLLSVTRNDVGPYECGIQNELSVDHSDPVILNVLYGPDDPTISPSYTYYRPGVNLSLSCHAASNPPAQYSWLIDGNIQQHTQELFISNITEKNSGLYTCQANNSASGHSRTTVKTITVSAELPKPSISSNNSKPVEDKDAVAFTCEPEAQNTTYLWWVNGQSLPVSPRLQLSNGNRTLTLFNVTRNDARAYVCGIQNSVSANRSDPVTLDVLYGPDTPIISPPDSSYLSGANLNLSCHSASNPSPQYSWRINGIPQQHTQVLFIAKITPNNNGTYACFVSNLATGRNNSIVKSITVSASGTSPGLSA
The series can be described thus: binding assay. Particulars: ODI chemiluminescence; CL intensity about 4-fold higher without CEA than with 80 ng/ml CEA; 1 uM CH-2, 740 nM hemin, 1 h room temperature; indirect; purified native protein; protein details: Lee Biosolutions CEA antigen; single-stranded DNA.

The exact form of at least one protein or probe is not confirmed. The direction of at least one scale is not stated here. Where a protein sequence is shown, tags need not be part of it.

Turning to “ATACCAGCTTATTCAATTAAAAATAAAGGGTAGGGCGGGTTGGGTAAAT [CH-2 (CEA aptamer-A5 linker-hemin aptamer)]”, the binding signal stood at 4 fold.

Values taken from patent US20180275120.
